In paper PMC12708788:
These are yes or no findings as the source states them, for the method shown. In cells and extracts the contact can be indirect. A result given as binding can be weak or reduced; the word gives no strength.

Chains of the proteins cited; added tags and fusions are not shown. Lines headed by an entry give the natural chain unless they say otherwise; changes in a name come on top.
UniProt P61073: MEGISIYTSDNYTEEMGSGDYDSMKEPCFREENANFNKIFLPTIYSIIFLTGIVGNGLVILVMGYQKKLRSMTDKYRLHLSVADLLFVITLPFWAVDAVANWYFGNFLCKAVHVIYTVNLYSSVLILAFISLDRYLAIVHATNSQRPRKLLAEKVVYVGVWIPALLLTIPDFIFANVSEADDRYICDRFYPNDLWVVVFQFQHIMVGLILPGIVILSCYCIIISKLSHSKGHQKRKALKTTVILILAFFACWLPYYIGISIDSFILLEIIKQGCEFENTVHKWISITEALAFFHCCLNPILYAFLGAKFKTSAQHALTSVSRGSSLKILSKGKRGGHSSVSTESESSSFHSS
UniProt P25106: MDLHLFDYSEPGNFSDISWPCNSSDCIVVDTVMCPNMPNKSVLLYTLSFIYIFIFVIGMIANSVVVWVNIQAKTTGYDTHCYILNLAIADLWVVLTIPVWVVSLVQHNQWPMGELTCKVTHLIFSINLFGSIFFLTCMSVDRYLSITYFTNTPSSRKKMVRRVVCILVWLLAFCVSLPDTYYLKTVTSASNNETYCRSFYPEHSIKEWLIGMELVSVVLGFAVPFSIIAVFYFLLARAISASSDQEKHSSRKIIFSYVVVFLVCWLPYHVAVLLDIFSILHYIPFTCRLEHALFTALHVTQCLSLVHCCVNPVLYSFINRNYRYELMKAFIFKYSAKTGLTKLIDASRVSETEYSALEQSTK

Columns and labels:
[1] = target: Halo-CXCR4 (UniProt P61073); experiment: FRET or BRET; TR-FRET between labelled nanobodies on cells co-expressing CXCR4 and ACKR3 receptors, 96-well plate format (Fig. S12)
[2] = target: Halo-CXCR4 (UniProt P61073); experiment: FRET or BRET; TR-FRET microscopy between 10 nM Lumi4-Tb- and d2-labelled nanobodies bound to receptors on transfected HEK293T cells, 37 °C

## SNAP-ACKR3-ΔCterm (from UniProt P25106) (receptor)
[1]
  binding: binds
[2]
  binding: binds
